Values are the deposited “Percent Effect”, in %. The controls that fix the scale are not given in the record; negative values are as filed. The compounds are a random part of those screened.

Protein sequences, listed by entry. Tags and fused reporters are not part of them.
UniProt I6X8D2, whole entry: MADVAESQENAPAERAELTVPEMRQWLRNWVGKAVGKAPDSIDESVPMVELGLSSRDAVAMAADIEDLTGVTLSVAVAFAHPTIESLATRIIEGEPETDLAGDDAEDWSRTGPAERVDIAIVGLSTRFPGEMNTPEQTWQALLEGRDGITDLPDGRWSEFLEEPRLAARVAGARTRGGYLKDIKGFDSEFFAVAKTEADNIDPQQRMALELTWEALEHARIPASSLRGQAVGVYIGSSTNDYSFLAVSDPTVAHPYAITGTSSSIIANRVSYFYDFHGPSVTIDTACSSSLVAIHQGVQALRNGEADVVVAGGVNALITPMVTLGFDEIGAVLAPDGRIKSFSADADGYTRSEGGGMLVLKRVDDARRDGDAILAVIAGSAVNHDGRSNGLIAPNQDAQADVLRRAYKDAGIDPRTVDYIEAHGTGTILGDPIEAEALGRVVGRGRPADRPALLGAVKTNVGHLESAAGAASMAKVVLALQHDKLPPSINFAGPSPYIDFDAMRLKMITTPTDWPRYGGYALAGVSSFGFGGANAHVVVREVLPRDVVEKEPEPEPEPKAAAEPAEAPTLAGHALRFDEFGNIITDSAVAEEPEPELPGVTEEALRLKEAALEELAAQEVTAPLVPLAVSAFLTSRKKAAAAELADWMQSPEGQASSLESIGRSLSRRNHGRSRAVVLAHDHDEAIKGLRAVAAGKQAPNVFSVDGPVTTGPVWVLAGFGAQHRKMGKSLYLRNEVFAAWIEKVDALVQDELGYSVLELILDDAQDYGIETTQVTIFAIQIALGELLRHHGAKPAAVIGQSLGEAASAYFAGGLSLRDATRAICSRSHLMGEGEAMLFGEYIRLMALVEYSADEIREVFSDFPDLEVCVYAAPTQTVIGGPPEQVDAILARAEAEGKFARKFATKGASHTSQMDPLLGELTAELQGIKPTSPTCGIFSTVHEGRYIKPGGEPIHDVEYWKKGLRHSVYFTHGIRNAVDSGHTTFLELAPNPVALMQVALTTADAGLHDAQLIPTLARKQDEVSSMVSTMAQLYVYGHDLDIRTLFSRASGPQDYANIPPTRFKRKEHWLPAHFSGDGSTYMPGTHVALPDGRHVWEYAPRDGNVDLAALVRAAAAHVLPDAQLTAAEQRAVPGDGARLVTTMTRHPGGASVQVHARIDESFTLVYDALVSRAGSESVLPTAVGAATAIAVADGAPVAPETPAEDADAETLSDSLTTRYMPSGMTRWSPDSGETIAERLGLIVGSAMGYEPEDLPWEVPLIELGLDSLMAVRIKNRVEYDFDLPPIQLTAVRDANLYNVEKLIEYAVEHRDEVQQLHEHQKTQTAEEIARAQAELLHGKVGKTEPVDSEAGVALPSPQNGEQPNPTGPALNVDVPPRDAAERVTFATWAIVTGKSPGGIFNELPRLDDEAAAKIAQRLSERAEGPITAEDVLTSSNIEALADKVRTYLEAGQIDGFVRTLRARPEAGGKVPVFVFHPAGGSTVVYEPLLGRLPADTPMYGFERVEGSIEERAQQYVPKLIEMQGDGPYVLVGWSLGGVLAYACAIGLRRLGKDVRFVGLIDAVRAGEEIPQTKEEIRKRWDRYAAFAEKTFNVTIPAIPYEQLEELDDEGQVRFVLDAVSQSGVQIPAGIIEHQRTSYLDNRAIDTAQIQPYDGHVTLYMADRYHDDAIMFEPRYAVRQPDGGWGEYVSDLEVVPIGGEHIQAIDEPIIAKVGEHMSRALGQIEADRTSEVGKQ

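Enzyme assay of the thioesterase domain of polyketide synthase 13; the read-out is not stated. Target: Polyketide synthase Pks13, Mycobacterium tuberculosis (UniProt I6X8D2). Compounds at 30 µM. Higher reads as stronger inhibition (inferred from which compounds were picked for retests). About 67,000 compounds were tested under these conditions; 0.46% (about 300) showed 50% or more at least once.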

| # | compound | Percent Effect |
|---|---|---|
| 1 | `Cc1nnnn1-c1cc(NCc2cccc(C#N)c2)ccc1F` | 2.305 |
| 2 | `O=C(C[C@@H]1COC[C@H]2CN(C(=O)c3cccnc3)C[C@@H]12)N1CCCC1` | 9.526 |
| 3 | `CCS(=O)(=O)N1CCC(NC(=O)c2cc3ccccc3cc2O)CC1` | -13.26 |
| 4 | `CC1(C)CC(CC(=O)N2CC(C)(C)[C@@](C)(O)C2)CC(C)(C)N1` | 3.433 |
| 5 | `CCc1nnc(SC2CCCN(c3cccc(F)c3)C2=O)n1C` (stereo not given) | -13.78 |
| 6 | `Cc1ncccc1CNCC1COC2(CCCCC2)O1` (stereo not given) | 1.859 |
| 7 | `O=C(CC1CC1)NCc1cn2c(n1)CN(Cc1nccs1)CC2` | 0.5385 |
| 8 | `CNS(=O)(=O)c1ccc(CNC(=O)C2CCCO2)cc1` (stereo not given) | -8.585 |
| 9 | `CN(C)S(=O)(=O)c1ccc(CN2CCCC2c2ccc[nH]2)o1` (stereo not given) | 3.452 |
| 10 | `O=C(O)C(c1ccc2c(c1)OCCO2)N1CCSCC1` (stereo not given) | -6.564 |
| 11 | `O=c1c2ccccc2ncn1Cc1cc(C2CC2)[nH]n1` | -12.51 |
| 12 | `CC(C)[C@H]1CN(Cc2nccn2C)C[C@@H]1NC(=O)CCS(C)(=O)=O` | -2.463 |
| 13 | `CCN(CC)CCn1cnc(-c2ccccc2)c1-c1cnn(CC)c1` | -14.46 |
| 14 | `Cc1noc(C)c1CNCC1CNc2ccnn2C1` (stereo not given) | -25.61 |
| 15 | `CCc1cnc(C)nc1NCCC(=O)N1CCC(C)CC1` | 1.945 |
| 16 | `O=C(CCN1CCOCC1)NC(Cc1ccsc1)c1nccs1` (stereo not given) | 2.311 |
| 17 | `CC(C)(C)NC(=O)CNc1ccc(Br)cn1` | -20.9 |
| 18 | `O=S(=O)(CCNCc1ccc2c(c1)CCO2)N1CCOCC1` | -23.16 |
| 19 | `Cc1nc(C2CCCN2C(=O)CCCn2cccn2)no1` (stereo not given) | -11.3 |
| 20 | `CS(=O)(=O)NC[C@H]1OC[C@H]2CN(Cc3ccsc3)CC[C@H]21` | -8.078 |
| 21 | `Cc1ncsc1CN(Cc1ccccc1)Cc1ncc[nH]1` | -17.65 |
| 22 | `COc1ccccc1COCC(O)CN(C)Cc1cccc(Cl)c1` (stereo not given) | -4.72 |
| 23 | `CC(C)CN1CCn2nc(CNc3ncnc4[nH]ccc34)cc2C1` | -10.55 |
| 24 | `Cc1nnc2n1CCN(Cc1csc(CC(=O)N(C)C)n1)C2` | -2.76 |
| 25 | `CN(CCO)C[C@@H]1CN(C(=O)c2cccc(OC(F)F)c2)C[C@@H]1CO` | -2.013 |
| 26 | `Cc1cc(CN2CCOC(CNc3cccnn3)C2)no1` (stereo not given) | 4.394 |
| 27 | `CCC(C)NC(=O)c1cc(Br)c2c(c1)OCCO2` (stereo not given) | -18 |
| 28 | `Cn1cc(CN2CCc3nc4sccc4c(=O)n3CC2)cn1` | -7.349 |
| 29 | `COc1ccc(Cl)cc1CC(=O)N1CCN(CCO)CC1` | -9.201 |
| 30 | `O=C(CC1CC1)NCc1cc(=O)n2c(n1)CN(Cc1ccoc1)CCC2` | -14.56 |
| 31 | `COCC1CC2(CCN(C(=O)c3ccco3)CC2)CN1C(C)C` (stereo not given) | -7.943 |
| 32 | `CCN(CC(F)(F)F)C(=O)C1CCCN(Cc2nc(C)c(C)o2)C1` (stereo not given) | -26.63 |
| 33 | `Cn1cc(C[C@H]2[C@H](O)CCN2Cc2ccc3c(c2)OCO3)cn1` | -9.032 |
| 34 | `Cc1nccn1-c1ccc(NC(=O)C2CCCN2Cc2c[nH]cn2)cc1` (stereo not given) | -6.047 |
| 35 | `CCCC1(CO)CCCN(C(=O)CCCn2nc(C)cc2C)C1` (stereo not given) | -7.826 |
| 36 | `CCN(CC)CC1CN(Cc2cccc(C#N)c2)Cc2nccn2C1` (stereo not given) | 3.406 |
| 37 | `Cc1ccc(F)c(OC2(C(=O)O)CCN(C(=O)C3CCCC3)CC2)c1` | 6.271 |
| 38 | `O=C(NCCc1ccccc1)NCCN1CCC(c2cccs2)CC1` | -7.602 |
| 39 | `Oc1cc(CN2CCC(O)(Cn3ccnc3)CC2)nc2ccc(F)cc12` | -37.68 |
| 40 | `CCS(=O)(=O)N1Cc2nccn2CC(Cn2cncn2)C1` (stereo not given) | -2.772 |
| 41 | `CCC1CCCN(CC(=O)Nc2oc(C)c3c(C)n[nH]c(=O)c23)C1` (stereo not given) | 5.065 |
| 42 | `Cc1n[nH]c(SCC(=O)NC(c2ccccn2)C(C)C)n1` (stereo not given) | -13.64 |
| 43 | `COc1cccc2c1CCN(C(=O)NCCc1nccn1C)C2` | -39.17 |
| 44 | `CNc1ncccc1CN1CCN2CCN(C)CC2C1` (stereo not given) | -22.25 |
| 45 | `CO[C@H]1CCN(c2ncc(F)cn2)[C@@H]2CN(Cc3ccco3)C[C@H]12` | -21.44 |
| 46 | `Cc1cc(C)n(CCCn2cncc2-c2ccc3c(c2)CC(C)N3C)n1` (stereo not given) | -27 |
| 47 | `O=C(Cn1ccc(=O)cc1)NCc1ccc2sccc2c1` | -10.84 |
| 48 | `CNC(=O)[C@@H](C1CCCCC1)N1CCC[C@H]1C(=O)NCCN1CCCC1` | -6.815 |
| 49 | `COCC(C)NC(=O)CN1CCC(CO)CC1` (stereo not given) | -10.06 |
| 50 | `COC(=O)N1C[C@H]2CC[C@@H]1CN(Cc1ccncc1)C2` | -16.02 |
| 51 | `O=c1oc(-c2ccc(F)cc2)nn1CC1CCOC1` (stereo not given) | 11.13 |
| 52 | `Cc1cc(C(=O)N2CCNC(=O)C2)c(C)n1CC(F)(F)F` | -16.58 |
| 53 | `CC(C)N(CCCNC(=O)C1CC(=O)N(C)C1)S(C)(=O)=O` (stereo not given) | -33.56 |
| 54 | `CCc1nc(C2CCCN2C(=O)c2ncoc2CC)no1` (stereo not given) | -6.866 |
| 55 | `CCS(=O)(=O)N1C[C@@H](c2cc(O)nc(C)n2)[C@H](c2ccccc2F)C1` | -11.29 |
| 56 | `Nc1nonc1C(=O)N1Cc2ccccc2OC2(CCOCC2)C1` | 5.524 |
| 57 | `O=C(O)Cn1nc(C2CC2)c2c(-c3cccs3)ccnc21` | 46.3 |
| 58 | `Brc1cccc(-c2nnc(CNCCn3cccn3)o2)c1` | 2.588 |
| 59 | `CC(C)c1n[nH]c(C2CN(C(=O)COCC(F)(F)F)CCO2)n1` (stereo not given) | -4.836 |
| 60 | `c1ccc(OCCN2CCC(n3cncn3)CC2)cc1` | -2.856 |
| 61 | `Cn1ccnc1C(=O)NCCS(=O)(=O)c1ccc(C(C)(C)C)cc1` | -10.48 |
| 62 | `CN(Cc1cccs1)c1cc(N2CCCC2CO)ncn1` (stereo not given) | -30.05 |
| 63 | `CC(C)C(C)(C#N)NC(=O)Cn1cc(C(N)=O)c(-c2ccccc2)n1` (stereo not given) | -16.47 |
| 64 | `CCOc1cccc(C(C)NC(=O)N2CCC3(CC2)OCCO3)c1` (stereo not given) | -13 |
| 65 | `COCCC(=O)N[C@H]1CC[C@H](Nc2nccc(-c3ccncc3)n2)C1` | -2.069 |
| 66 | `CC/N=c1\nc(NCC)nc2n1C(O)(Nc1cccc(Cl)c1Cl)CS2` (stereo not given) | 0.2443 |
| 67 | `O=C(NCCCn1nc2ccccn2c1=O)Nc1ccccc1` | -20.3 |
| 68 | `Cc1nc(-c2nnc[nH]2)sc1C(=O)N1CCCC1CC(C)(C)C` (stereo not given) | -20.6 |

For reference, 6 entries once more:

| compound | Percent Effect |
|---|---|
| `Cc1noc(C)c1CNCC1CNc2ccnn2C1` (stereo not given) | -25.61 |
| `COC(=O)N1C[C@H]2CC[C@@H]1CN(Cc1ccncc1)C2` | -16.02 |
| `CCc1cnc(C)nc1NCCC(=O)N1CCC(C)CC1` | 1.945 |
| `O=C(Cn1ccc(=O)cc1)NCc1ccc2sccc2c1` | -10.84 |
| `Brc1cccc(-c2nnc(CNCCn3cccn3)o2)c1` | 2.588 |
| `CCN(CC)CCn1cnc(-c2ccccc2)c1-c1cnn(CC)c1` | -14.46 |

From ChEMBL document CHEMBL3988442, “University of Dundee, Small-Polar-MMV Screening Library” (2021).